Measured values: publication PMC7819943, “Rice protein-binding microarrays: a tool to detect cis-acting elements near promoter regions in rice”
This is one part of the list.

Molecular target: T1, OsSMF1 (Oryza sativa, UniProt Q6ZLB0 1-436)
T1 sequence: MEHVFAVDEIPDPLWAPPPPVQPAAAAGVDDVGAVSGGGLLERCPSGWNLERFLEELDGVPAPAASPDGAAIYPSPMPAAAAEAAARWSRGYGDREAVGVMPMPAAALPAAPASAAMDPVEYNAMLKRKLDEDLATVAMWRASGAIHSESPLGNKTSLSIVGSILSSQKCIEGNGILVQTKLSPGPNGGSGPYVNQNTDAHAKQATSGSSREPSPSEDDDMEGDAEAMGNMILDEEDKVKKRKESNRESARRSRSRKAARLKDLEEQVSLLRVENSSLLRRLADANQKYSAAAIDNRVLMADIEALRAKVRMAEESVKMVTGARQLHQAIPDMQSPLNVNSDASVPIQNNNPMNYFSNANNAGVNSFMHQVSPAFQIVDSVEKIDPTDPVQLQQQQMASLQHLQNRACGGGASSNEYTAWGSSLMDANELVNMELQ
Test: protein-binding microarray (RPBM); PBS, 2% BSA, 51.3 ng/ul salmon testes DNA, 50 uM zinc acetate, 200 nM TF, 25 C, 1 h; high values mean tight binding
Details: protein: recombinant; tags: N-terminal polyhistidine and DsRed monomer fusion (pET32a); chain copies: 2; label: CyDye5-dUTP incorporated in the synthesized complementary strand; 3' TTTTT single-stranded linker to array surface; dsDNA, one strand shown
Outline: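 Using Ni–NTA, transcription factors fused N-terminally to polyhistidine and DsRed were purified after expression in E. coli BL21-CodonPlus. These were incubated at 200 nM with a blocked, double-stranded custom Agilent array for 1 h at 25 °C in a buffer containing 50 µM zinc acetate, and the array was washed. The binding signal is per-feature fluorescence intensity (arbitrary units) on an Axon 4000B scanner.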

First: GGAGAGCTTTACAGTCGGTCAACGTGGAGGCTATGGGTACCGGAGTCACCTAGTGCAG
Second: TCAGAGATCACAGTATCGTCGTCACAGTGACTAAATGCAGCGGAGTCACCTAGTGCAG
The binding signal of the first is lower: 4280 fluorescence intensity (a.u.) for the first, 4550 fluorescence intensity (a.u.) for the second.

First: ACTATCAGGAAGCCCAGGAAGCCCACGTACGCCGGCACCCCGGAGTCACCTAGTGCAG
Second: GCAGGGCAGGCTGACAGCTCATCTTCTCAGAGGATCCGATCGGAGTCACCTAGTGCAG
The binding signal of the first is lower: 3440 fluorescence intensity (a.u.) for the first, 5100 fluorescence intensity (a.u.) for the second.

Going from “TGCATACTCCTACTCATTTGCCCACTCTGTGCAGGCAGTGCGGAGTCACCTAGTGCAG” to “TGGTGGGGCTGGCACACTTGTCATCACCTGACTTCAGTAGCGGAGTCACCTAGTGCAG”, the binding signal rises from 3880 fluorescence intensity (a.u.) to 6410 fluorescence intensity (a.u.).

Going from “TGATACTCCCGGTCCCATGTCACCGACAAGTATAATCGTTCGGAGTCACCTAGTGCAG” to “TATCCGTATGTGTTTAGAGCTGACTTGTAGGGTAGTATTGCGGAGTCACCTAGTGCAG”, the binding signal falls from 4810 fluorescence intensity (a.u.) to 4160 fluorescence intensity (a.u.).

First: TATTAAACTTGCTCTAAACGTCATCAATCAATTGATCAAGCGGAGTCACCTAGTGCAG
Second: AGTTGGGAACCTCTCAAAATGCACCTAGAATTAACCTCTCCGGAGTCACCTAGTGCAG
The binding signal of the first is higher: 5340 fluorescence intensity (a.u.) for the first, 3500 fluorescence intensity (a.u.) for the second.

Compared with “GGAAATGCATGCATTTGCAGGGCTTCATGGAGCGCCTGGACGGAGTCACCTAGTGCAG”, “TTGATTGGTTACAACTACATAAGAGGACTCTTAATACCAACGGAGTCACCTAGTGCAG” is higher in binding signal: 24800 fluorescence intensity (a.u.) for the first, 37900 fluorescence intensity (a.u.) for the second.

Compared with “TCGGCAATGGCATGCATCTTCTGTTTTAAAATATAGGCATCGGAGTCACCTAGTGCAG”, “CGAATCCCGGGCGATGGTTGTCCGGCTGCCGTGTCGTGTACGGAGTCACCTAGTGCAG” is higher in binding signal: 3290 fluorescence intensity (a.u.) for the first, 4360 fluorescence intensity (a.u.) for the second.

First: AGTGCATGCGTGTGCGCCTGCCTGCTTACTTCCATCTCGACGGAGTCACCTAGTGCAG
Second: GTGGTTCTCTGATGTTTAAGCATCAGCTTGAATTCTGAACCGGAGTCACCTAGTGCAG
The binding signal of the first is higher: 7880 fluorescence intensity (a.u.) for the first, 3750 fluorescence intensity (a.u.) for the second.

Going from “CTCCGGCCTCTACCGCATCTACCACCATCACTAGCTCTCGCGGAGTCACCTAGTGCAG” to “GCGGCCGACGAGGAGATCCGCGCCATGATACGCGTGGCCGCGGAGTCACCTAGTGCAG”, the binding signal rises from 3380 fluorescence intensity (a.u.) to 4990 fluorescence intensity (a.u.).

First: TCTGTTTAGTTACATCACTGATGGTCTTGATTTCGCAGTGCGGAGTCACCTAGTGCAG
Second: ATCTTTATATGTCGACTCACCACAAATCCTTTATATTGCACGGAGTCACCTAGTGCAG
The binding signal of the first is lower: 4040 fluorescence intensity (a.u.) for the first, 4660 fluorescence intensity (a.u.) for the second.

Going from “CTTTATATAGAAAAGTTTCCCCAGAAATTGTTTGTATAGACGGAGTCACCTAGTGCAG” to “AATAATTGAAAATTTTGTTTGAGTGCACATCGTGTGCATTCGGAGTCACCTAGTGCAG”, the binding signal falls from 23300 fluorescence intensity (a.u.) to 7610 fluorescence intensity (a.u.).

Compared with “ATCTAGCTAGTAGCAGTAGATTCAGTGTCAGCATATATACCGGAGTCACCTAGTGCAG”, “TAACATGTGTGTCCAGTGACAAATTCTTATTTACCACTTACGGAGTCACCTAGTGCAG” is higher in binding signal: 6200 fluorescence intensity (a.u.) for the first, 22100 fluorescence intensity (a.u.) for the second.

Compared with “CTCGGCGGCGGCGGAAGGCGAGCTTGGCGGCCGACGTGGACGGAGTCACCTAGTGCAG”, “ACAATAGGTAGTGTGGTGCATCTTATCTCCACGACTCCCCCGGAGTCACCTAGTGCAG” is lower in binding signal: 8140 fluorescence intensity (a.u.) for the first, 3170 fluorescence intensity (a.u.) for the second.

Compared with “CCATCGCCGCCGCCCTCTTCTTCTTCTTCTTGCGAAGCAACGGAGTCACCTAGTGCAG”, “CTTTGGATCCACAGTCGCCTGGGACCCACCTGTCATCCGGCGGAGTCACCTAGTGCAG” is lower in binding signal: 19100 fluorescence intensity (a.u.) for the first, 3220 fluorescence intensity (a.u.) for the second.

First: AGTGCATAAGACTTGCTGATCTGGTCACCATTGGAACTGGCGGAGTCACCTAGTGCAG
Second: TTGGCTGATGTCCAAAGTGTGAGCTTGGTGTTGCTTTGCTCGGAGTCACCTAGTGCAG
The binding signal of the first is higher: 4880 fluorescence intensity (a.u.) for the first, 3600 fluorescence intensity (a.u.) for the second.

Compared with “CCCTTGTGTGCGTTATATATTACGGGCGTATAAACACTTACGGAGTCACCTAGTGCAG”, “AAGTCTGCTATCATTGCGTAATCACGGTTTGTGCCTTTGTCGGAGTCACCTAGTGCAG” is higher in binding signal: 3330 fluorescence intensity (a.u.) for the first, 4210 fluorescence intensity (a.u.) for the second.

Compared with “AGTGCTAGCCACTAACATGTGGGGCTATATGGGTCTCACGCGGAGTCACCTAGTGCAG”, “CCGATGTGAAACTGTGACGAATCGTGCCACATTTCAACTGCGGAGTCACCTAGTGCAG” is lower in binding signal: 5570 fluorescence intensity (a.u.) for the first, 5470 fluorescence intensity (a.u.) for the second.

Compared with “AACCCTTTTCATCCTGTCACGCCACCGAGGCACCCGCCTCCGGAGTCACCTAGTGCAG”, “ATGTTATCGTGCTAGTGTCAGCACATTCTCACTGATATTACGGAGTCACCTAGTGCAG” is lower in binding signal: 6200 fluorescence intensity (a.u.) for the first, 5330 fluorescence intensity (a.u.) for the second.

First: AAACACAATTGTGCCACCTATACAGACTGTTTTGGGGAATCGGAGTCACCTAGTGCAG
Second: TGCAGCCTACAGGCACGAACACGTCAGCAGTCCACGCCTCCGGAGTCACCTAGTGCAG
The binding signal of the first is lower: 3940 fluorescence intensity (a.u.) for the first, 16900 fluorescence intensity (a.u.) for the second.

Going from “ACCGCCGCGTGCTGCTGACGTGGCAGTCATCTCAGCCGTCCGGAGTCACCTAGTGCAG” to “CAGCAGCAGCCACGCGACACGCTCCTCCACTCCTCTCCCGCGGAGTCACCTAGTGCAG”, the binding signal falls from 34300 fluorescence intensity (a.u.) to 3770 fluorescence intensity (a.u.).

Going from “TTGTGCTCGATGTGGCTTAGTCATGAAAGCCAATAGCCTTCGGAGTCACCTAGTGCAG” to “GATTGCAGCTAAGAAAGTCGCAGCCAAGAAGTATATAACGCGGAGTCACCTAGTGCAG”, the binding signal rises from 3640 fluorescence intensity (a.u.) to 24000 fluorescence intensity (a.u.).

Compared with “ACTGACGAGTCGACGGGAAACGGTGACGCGGCGGCCTGAGCGGAGTCACCTAGTGCAG”, “CGTCGCACTCACACAACTTGTGTGCAGCCCTGACACACAACGGAGTCACCTAGTGCAG” is lower in binding signal: 8740 fluorescence intensity (a.u.) for the first, 3970 fluorescence intensity (a.u.) for the second.

Compared with “TAAGGTTGCCAACCTTAGCTGTTCGTTTTCCACGCGCACGCGGAGTCACCTAGTGCAG”, “GATGCTGACGGGTTTGGCTGTCAAGATGCATGTATCTATCCGGAGTCACCTAGTGCAG” is higher in binding signal: 3230 fluorescence intensity (a.u.) for the first, 3600 fluorescence intensity (a.u.) for the second.

Going from “TGTTCGGCACCACATGTTCTCAACTCTTCTCCCTCGTGTTCGGAGTCACCTAGTGCAG” to “TCGGCTGCGCGAGCGCATAGCCTCGGTTTTAATAGTCGGCCGGAGTCACCTAGTGCAG”, the binding signal rises from 3160 fluorescence intensity (a.u.) to 17000 fluorescence intensity (a.u.).

First: ATATTGATAACATATATTCACAACGATGATTCAGCATTGTCGGAGTCACCTAGTGCAG
Second: AGAGAGACTGACCGCCGGGACCCACAAGAGAGAACCACGTCGGAGTCACCTAGTGCAG
The binding signal of the first is lower: 3380 fluorescence intensity (a.u.) for the first, 30700 fluorescence intensity (a.u.) for the second.

Going from “TATATATATATATATATATATATATAATCTACTTGGCATGCGGAGTCACCTAGTGCAG” to “TGGCTTGGCTTCCTAATTTGTTACTAATGAAATCGGTTAGCGGAGTCACCTAGTGCAG”, the binding signal falls from 4020 fluorescence intensity (a.u.) to 3160 fluorescence intensity (a.u.).

First: GCCATGAGTCATCAGTCATGACTCATGACACGATGGGCACCGGAGTCACCTAGTGCAG
Second: AATGATATTGAAGGGATAAAACTTCTTGTTTTACGTGTTGCGGAGTCACCTAGTGCAG
The binding signal of the first is higher: 12900 fluorescence intensity (a.u.) for the first, 3260 fluorescence intensity (a.u.) for the second.
